Results from patent publication US20230172971A1, “ANTIBIOTIC AND ANTI-INFLAMMATORY COMPOSITIONS AND METHODS OF USE” (priority 2020, published 2023).
Some entries share one result that the patent states for a list of compounds.

System: HEKa cells (primary human epithelial keratinocytes)
Assay: Cytokine release (IL-8, IL-6, TNF-alpha) by HEKa cells, Quantikine ELISA
Type: cell-based
Settings: PG or LPS 5 μg/mL, 24 hr; untreated control ~200
Method: Materials included HEKa cells (primary human epithelial keratinocytes; Invitrogen), Epilife Medium and growth supplement (Invitrogen), lipopolysaccharides from Escherichia coli O111:B4 (Sigma), peptidoglycan from Staphylococcus aureus (Sigma), and Human (IL-8/CXCL8, IL-6, TNF-alpha) Quantikine ELISA Kits (R&D). HEKa cells were seeded in T-75 tissue culture flasks with Epilife media supplemented with human keratinocyte growth supplement 100 ug/mL and 100 U/mL of pen/strep and incubated at 37° C. in a CO2 incubator. Fresh media was replaced every 2 days. Until the cell confluence reach 80-90%, they were split into a new passage. […] Concentrations of IL-8, IL-6, TNF-α cytokines released into the media were quantified followed the instructions of Quantikine Colorimetric ELISA assay kits (R&D Systems). Absorbance was measured at 450 nm and 570 nm. Final corrected absorbance was the subtraction […].
HEKa cells were seeded in T-75 tissue culture flasks with Epilife media supplemented with human keratinocyte growth supplement 100 ug/mL and 100 U/mL of pen/strep and incubated at 37° C. in a CO2 incubator. […] Concentrations of IL-8 cytokine released into the media were quantified followed the instructions of Quantikine Colorimetric ELISA assay kits (R&D Systems). Absorbance was measured at 450 nm and 570 nm. […]

Row | Substance | IL-8 concentration released by HEKa cells [pg/mL]
1 | peptidoglycan [PG] | > 1500
2 | lipopolysaccharide [LPS] | > 1500
